Measured values: patent US7410966B2, “Use of and some novel imidazopyridines” (AstraZeneca AB, priority 2002, dated 2008)
Counter-ions that a name gives are not always drawn. Some results were stated once for a whole list of compounds, not compound by compound.

Target: T1, recombinant human Itk kinase domain fused with GST (Homo sapiens, UniProt Q08881)
T1 construct: recombinant human Itk kinase domain fused with GST (Glutathione S-Transferase); GST (Glutathione S-Transferase); made in house; host or cells: High Five insect cells
T1 sequence (Q08881 363-615 limits assumed): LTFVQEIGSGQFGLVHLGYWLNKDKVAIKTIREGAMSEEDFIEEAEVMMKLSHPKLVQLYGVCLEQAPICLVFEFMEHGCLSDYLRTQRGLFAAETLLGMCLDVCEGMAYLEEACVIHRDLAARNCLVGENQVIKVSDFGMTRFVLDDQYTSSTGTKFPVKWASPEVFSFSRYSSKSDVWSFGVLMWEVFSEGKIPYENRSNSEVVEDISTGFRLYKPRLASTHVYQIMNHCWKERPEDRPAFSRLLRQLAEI
Assay: Itk LANCE TRF Assay
Type: biochemical
Details: 2 μM biotinylated peptide substrate, 50 μM ATP, 50 minutes RT, read-out: Inhibition of Kinase Itk (IC50 μM)
Method: The Itk kinase assay utilized recombinant human Itk kinase domain fused with GST (Glutathione S-Transferase). The protein was expressed in High five insect cells, purified in one step on an affinity chromatography glutathione column and stored in 50 mM Tris/HCl (pH 7.6), 150 mM NaCl, 5% (w/v) mannitol, 1 mM DTT, 30% glycerol at −70° C. The kinase substrate used in the assay was a biotinylated peptide derived from the Src-optimal substrate (Nair et al, J. Med. Chem., 38: 4276, 1995; biotin-AEEEIYGEFEAKKKK).
The assay additions were as follows: Test compounds (or controls; 1 μL in 100% DMSO) were added to black 96-well flat-bottomed plates (Greiner 655076) followed by 20 μL Itk in assay buffer and the reaction was started by adding 20 μL ATP and peptide substrate in assay buffer. The assay buffer constitution during, phosphorylation was: 50 mM HEPES (pH 6.8), 10 mM MgCl2, 0.015% Brij 35, 1 mM DTT, 10% glycerol, 160 ng/well Itk, 2 μM peptide substrate and 50 μM ATP. The assay was stopped after 50 minutes (RT) by adding 150 μL ice-cold Stop solution (50 mM Tris/HCl, pH 7.5, 10 mM EDTA, 0.9% NaCl and 0.1% BSA) together with LANCE reagents (2 nM PT66-Eu^3+, Wallac AD0069 and 5 μg/mL Streptavidin-APC, Wallac AD0059. Both concentrations were final in stopped assay solution). The plates were measured on a Wallac 1420 Victor 2 instrument with TRF settings after 1 h incubation, and the ratio (665 signal/615 signal)*10000 was used to calculate the inhibition values. IC50 values were determined using XLfit.

Compound	IC50
1-[4-(6-Bromo-3H-imidazo[4,5-b]pyridin-2-yl)phenoxy]-3-(1,3-thiazol-2-ylamino)propan-2-ol bis(trifluoroacetate) [Example 166]	< 25 µM
CC(C)c1ccc(-c2nc3cc(Br)cnc3[nH]2)cc1 [Example 26, 6-Bromo-2-(4-isopropylphenyl)-3H-imidazo[4,5-b]pyridine trifluoroacetate]	< 25 µM
6-Bromo-2-(4-tert-butylphenyl)-1H-imidazo[4,5-b]pyridine trifluoroacetate [Example 31]	< 25 µM
4-[({2-Hydroxy-3-[4-(6-methyl-3H-imidazo[4,5-b]pyridin-2-yl)phenoxy]propyl}amino)methyl]phenol bis(trifluoroacetate) [Example 130]	< 25 µM
N-[4-(6-Bromo-3H-imidazo[4,5-b]pyridin-2-yl)phenyl]-N,N-dimethylamine bis(trifluoroacetate) [Example 32]	< 25 µM
4-{3-[4-(6-Bromo-3H-imidazo[4,5-b]pyridin-2-yl)phenoxy]-2-hydroxypropyl}piperazin-1-ol bis(trifluoroacetate) [Example 133]	< 25 µM
